In PMC6923684:
Construct, isoform or probe ends are uncertain for at least one entry.

Molecular target: rTP05746 (Zn2Cys6 transcription factor) (Talaromyces pinophilus) (UniProt A0A3G2KS50)
Test: EMSA
Details: salmon sperm DNA, about 50 ng probe, 0-2.0 ug rTP05746, binding buffer of Liao et al. 2018 (composition, salt and pH not given), sheared salmon sperm DNA, 25 C, 20 min, recombinant protein, residues 1-333, protein details: Trx-His-S (pET32a), probe letters rebuilt from the primers and the genome

Sequence	binding result (label: FAM (printed TAM in Table S1))	binding result (label: FAM)
CGAATGGCAACTCTGGCACCATTAGCTTCATGTTTCGTCTTCGATTCTATATCCGGGGAAGAAGACCTCCTATCGATCCACATTGCTCGGTGATACGACAAGCGCGAAGGAAGGAGTAATGTACAAAAACAGAAGTGAGAAAGTATAGTTCACAATTCTGGCATTGAATCTTTGAAAGCAAGAAAGAAGGCGTTGTCAAGATCCAATTCACCAGCCGATATTCCCCGGGTTCTTCTTGACTTCTCAATGCCGCCTGAGGGCGCCACCAATGTTTCAAAGTGTTCTTCTAAATAAGATTAAGCATAAAAAGGACACGATGTAACTGGTCAGCCTCGATCGGCAAATTAATCGGTTAAAACACCTGCGTAGAACATCACTAGTACCTGCAGTAGCCCCTCTAAATCATTCTTCAACCCACCCTGCAGAGAAAGGAGAAAAACCAGCAACCCACAATGATGCATTGAACCTGGCCAAAGAGAGCCTGTTTTAATGTATACCTCTGCAGTAATGCCGACCATCGAATTTCTAATAGGTGGAAAGTCTTAGGCTACATGGCCAGGGCTACATTTCATGTGATCTTCTGCCTATTTCATGTGTCCCCGTAACCCCAAAGCCTCGCGGAGGCCGTGGATAGAATTGAATTAATTTCCTTTACCAAAACGCCTTCTTCGTTCCTCGCTCATTTCGTTTCATCAAATCGAATGCATTTCCCGGATTGCTTCCCCGCACATTTCGCGCCTCCTATCCTAACGAAACGATATCGCGGAAGTTCGGTGAAAAGATACAGATAGATATATGAATATCGTTTCTGTTATATTGCTCCGCATAGGTTCAAGGGTATATAAACAGGCTTACTGTCTAATAATCTCAATAACTGCTCAAATCCATTGTTTGTCCTTCTTCGTACCTGCGGCGAGATTCAATTTTGGACTGATGTCTAACATGGCGAC (double strand) [TP08514/eg1 promoter]	binds	–
TTTGTCGATTGCTTCTGACTGTTGCGGTTGATAGTGCCTAATTCTTCAAGGGAAACACCACCATTATATAGTGCTAAACTTGCATTCCATAGCTAGACAAAAATAATAAGAGCTAAGAACTATCTCCTCATCATTACGAGTGTTTTTCTTCATAATCGCGGTACCGCGGAATGTCGGGGCGCGATAGAAGGCGGATGAAGGCACAGCGTTACAGTATCGGCGTATGTGGCTTCATACCAATTTCACTCATAATCGACCTTCAGCCTCTGCCATCCAGACGAAAGTCATTAAACGAAATTATGGTATGTTTTAGCTCGGGTAAGTGTTTTAGCCCCTCAAAGTCCCTGATCTATACGTCCATCTGCCGGAAGCTGCATCTCAAGGACTTGCATTATGCAGGAGCCTACCATATTAATTGGAGTCGATTTGCCGGGAATGACAACACATGAACATCAACAGGGAAAGCAACATTCCCCACGTGCTGTTTTGTAGTGACCGCGGAGGACATGAACATTGACCGACACCCTTTGCTGCGCGCTTGCTAAGCTGACAATGGCCCAACCTTGTTGTGAAAAGAGAGAGATAAACCTACCAGACCCAAGCCTGCAAGATTGCGGAGAACATGAGAAAACTGACTAATTTAAAATTGTGTTGCTCCCTCACTCTCCGCATCTCCGCGATTGATATTCAGGACCATATGCGGGGTTTGTTCCAATTGGCTCGGCATCGGCAGATGAGAATGAGAAGAAACACTCTTTCAACCACGAAGATCAGTTACGTATGTAGTATACGTTTTCAGACACCGGAGAAATTGGCATAATGAATGATCTGGCTTATCTATCCGGATGAGCCTTTTATCGACTGTCGTCAAGTCGACAGCAATGAAGATACATATTTCCGAAATTGGGAATAGCCTCAACGGCATTGTTCCGACATTCATATAGCCTAATAAGGCAAAACTTTCGATCTC (double strand) [TP09412/cbh1 promoter]	–	binds
